Consider three sequences from PMC10333506.

Sequences of proteins named here, by UniProt entry; tags and fusion partners are left off. A change or cut given only in a name is not applied to a line headed by its entry.
UniProt Q8S307: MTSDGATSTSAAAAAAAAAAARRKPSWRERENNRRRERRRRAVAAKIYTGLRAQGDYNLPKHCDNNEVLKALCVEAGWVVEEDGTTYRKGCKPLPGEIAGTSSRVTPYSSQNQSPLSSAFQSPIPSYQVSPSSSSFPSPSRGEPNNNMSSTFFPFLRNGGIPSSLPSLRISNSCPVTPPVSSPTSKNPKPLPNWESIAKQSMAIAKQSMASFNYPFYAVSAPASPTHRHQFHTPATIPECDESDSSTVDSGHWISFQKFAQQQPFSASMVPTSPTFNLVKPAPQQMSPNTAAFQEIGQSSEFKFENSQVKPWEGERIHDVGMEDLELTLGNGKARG

Series [1] deals with MBP-BZR1 (UniProt Q8S307). Nature of the series: competition EMSA. The following applies: EMSA as described by Zhao et al. (2021), recombinant protein, protein details: MBP. Background: A gel shift assay detects complexes by their altered migration in electrophoresis.
The target in series [2] is MBP-BZR1 (UniProt Q8S307). Kind of series: EMSA. The following applies: EMSA as described by Zhao et al. (2021); recombinant protein; protein details: MBP; label: 5' biotin on both strands.

Construct, isoform or probe ends are uncertain for at least one entry. For part of these data: Weaker means in comparison with the reference protein, sequence or condition of that experiment.

On to “AATTACGTCAATAAAAAACACCTTTCTTTA (double strand) [m-Probe (BRRE to AAAAAA), unlabeled]”, for which the binding result with MBP-BZR1 [1] (unlabeled mutant competitor against biotin BRRE probe, significantly reduced ability to compete) is reported as “binds more weakly”.
“AATTACGTCAATCGTGTGCACCTTTCTTTA (double strand) [BRRE Biotin Probe (PLT1 promoter)]”: the binding result in the series with MBP-BZR1 [2] was “binds”.
With “AATTACGTCAATCGTGTGCACCTTTCTTTA (double strand) [BRRE Probe, unlabeled (PLT1 promoter)]”, in the series with MBP-BZR1 [1] (unlabeled competitor against biotin BRRE probe, binding weakened with increasing competitor), the binding result is “binds”.
